Laboratory results from PMC4401672.
No constants are given. Whether binding was seen depends on the method and setting. Binding seen in cells or lysates may run through a third protein. Here binding means that the protein was enriched with, or labelled near, the bait; the list need not be complete. Where a sequence is shown, tags or fusion partners need not be part of it.

Molecular target: T1, Tag-PDZK1 (TAP tag linked to full-length PDZK1), expressed in HEK293 cells (UniProt Q9JIL4)
T1 sequence: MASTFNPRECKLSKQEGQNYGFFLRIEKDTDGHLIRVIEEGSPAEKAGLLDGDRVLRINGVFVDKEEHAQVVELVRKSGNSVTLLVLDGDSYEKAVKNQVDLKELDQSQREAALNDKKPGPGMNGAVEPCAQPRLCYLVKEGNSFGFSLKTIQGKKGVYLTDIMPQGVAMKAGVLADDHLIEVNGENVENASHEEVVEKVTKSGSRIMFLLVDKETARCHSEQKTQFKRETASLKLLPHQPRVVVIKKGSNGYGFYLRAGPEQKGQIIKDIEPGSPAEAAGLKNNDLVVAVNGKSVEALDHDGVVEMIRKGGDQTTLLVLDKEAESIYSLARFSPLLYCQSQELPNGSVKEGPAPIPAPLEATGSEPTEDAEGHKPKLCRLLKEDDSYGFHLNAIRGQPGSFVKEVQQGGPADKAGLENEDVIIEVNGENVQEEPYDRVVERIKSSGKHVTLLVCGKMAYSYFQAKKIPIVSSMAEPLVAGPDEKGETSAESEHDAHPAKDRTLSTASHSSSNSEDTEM
Assay: affinity purification with mass spectrometry; tandem affinity purification of Tag-PDZK1 from lysates of adenovirus-infected HEK293 cells (IgG-Sepharose, TEV protease cleavage, streptavidin-Sepharose); eluates separated by SDS-PAGE, digested, analysed by MS with Mascot; TAP tag alone as control

binding: binds
B1: breakpoint cluster region kinase (Bcr), endogenous in HEK293 cells (protein, UniProt P11274 1-1271)
chain: MVDPVGFAEAWKAQFPDSEPPRMELRSVGDIEQELERCKASIRRLEQEVNQERFRMIYLQTLLAKEKKSYDRQRWGFRRAAQAPDGASEPRASASRPQPAPADGADPPPAEEPEARPDGEGSPGKARPGTARRPGAAASGERDDRGPPASVAALRSNFERIRKGHGQPGADAEKPFYVNVEFHHERGLVKVNDKEVSDRISSLGSQAMQMERKKSQHGAGSSVGDASRPPYRGRSSESSCGVDGDYEDAELNPRFLKDNLIDANGGSRPPWPPLEYQPYQSIYVGGMMEGEGKGPLLRSQSTSEQEKRLTWPRRSYSPRSFEDCGGGYTPDCSSNENLTSSEEDFSSGQSSRVSPSPTTYRMFRDKSRSPSQNSQQSFDSSSPPTPQCHKRHRHCPVVVSEATIVGVRKTGQIWPNDGEGAFHGDADGSFGTPPGYGCAADRAEEQRRHQDGLPYIDDSPSSSPHLSSKGRGSRDALVSGALESTKASELDLEKGLEMRKWVLSGILASEETYLSHLEALLLPMKPLKAAATTSQPVLTSQQIETIFFKVPELYEIHKEFYDGLFPRVQQWSHQQRVGDLFQKLASQLGVYRAFVDNYGVAMEMAEKCCQANAQFAEISENLRARSNKDAKDPTTKNSLETLLYKPVDRVTRSTLVLHDLLKHTPASHPDHPLLQDALRISQNFLSSINEEITPRRQSMTVKKGEHRQLLKDSFMVELVEGARKLRHVFLFTDLLLCTKLKKQSGGKTQQYDCKWYIPLTDLSFQMVDELEAVPNIPLVPDEELDALKIKISQIKNDIQREKRANKGSKATERLKKKLSEQESLLLLMSPSMAFRVHSRNGKSYTFLISSDYERAEWRENIREQQKKCFRSFSLTSVELQMLTNSCVKLQTVHSIPLTINKEDDESPGLYGFLNVIVHSATGFKQSSNLYCTLEVDSFGYFVNKAKTRVYRDTAEPNWNEEFEIELEGSQTLRILCYEKCYNKTKIPKEDGESTDRLMGKGQVQLDPQALQDRDWQRTVIAMNGIEVKLSVKFNSREFSLKRMPSRKQTGVFGVKIAVVTKRERSKVPYIVRQCVEEIERRGMEEVGIYRVSGVATDIQALKAAFDVNNKDVSVMMSEMDVNAIAGTLKLYFRELPEPLFTDEFYPNFAEGIALSDPVAKESCMLNLLLSLPEANLLTFLFLLDHLKRVAEKEAVNKMSLHNLATVFGPTLLRPSEKESKLPANPSQPITMTDSWSLEVMSQVQVLLYFLQLEAIPAPDSKRQSILFSTEV
